# Only a part is listed here, and it is no random draw. The calls were merged from several studies; some rest on single wells. The list shows a part of the results.
# Key:
# Settings in all cases: stereoisomer not certain
# [1] = tested on: T1, OR9G4
# T1 sequence (whole entry): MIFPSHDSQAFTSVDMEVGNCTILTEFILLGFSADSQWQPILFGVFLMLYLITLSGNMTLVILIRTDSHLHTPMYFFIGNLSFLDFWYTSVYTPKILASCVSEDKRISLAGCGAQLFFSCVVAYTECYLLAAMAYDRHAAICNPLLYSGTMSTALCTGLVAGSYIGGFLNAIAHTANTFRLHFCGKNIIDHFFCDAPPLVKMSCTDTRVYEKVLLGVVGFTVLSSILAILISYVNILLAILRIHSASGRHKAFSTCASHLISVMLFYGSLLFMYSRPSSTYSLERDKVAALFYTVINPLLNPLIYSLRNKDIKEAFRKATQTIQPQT
# Procedure, shortened: (§1)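 Whether a receptor–molecule pair is responsive (active) rests on the original authors' judgment that its measured signal was statistically different from baseline. Pairs without that judgment are non-responsive (inactive). Sources used varied assay methods, commonly transient luciferase assays in mammalian cell lines.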
# [2] = tested on: T2, OR9G9
# T2 sequence (whole entry): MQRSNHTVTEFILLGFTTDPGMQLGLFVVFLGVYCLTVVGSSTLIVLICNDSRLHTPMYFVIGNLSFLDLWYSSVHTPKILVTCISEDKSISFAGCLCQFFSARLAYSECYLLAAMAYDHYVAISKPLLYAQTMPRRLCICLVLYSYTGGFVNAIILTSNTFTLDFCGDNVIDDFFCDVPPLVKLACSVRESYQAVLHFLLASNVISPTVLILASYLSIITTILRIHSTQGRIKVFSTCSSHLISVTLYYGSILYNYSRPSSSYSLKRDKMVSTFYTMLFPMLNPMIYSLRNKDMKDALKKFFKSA
# Procedure, shortened: as §1
# [3] = tested on: T3, OR9G9; remark: listed apart in the source
# T3 sequence (whole entry): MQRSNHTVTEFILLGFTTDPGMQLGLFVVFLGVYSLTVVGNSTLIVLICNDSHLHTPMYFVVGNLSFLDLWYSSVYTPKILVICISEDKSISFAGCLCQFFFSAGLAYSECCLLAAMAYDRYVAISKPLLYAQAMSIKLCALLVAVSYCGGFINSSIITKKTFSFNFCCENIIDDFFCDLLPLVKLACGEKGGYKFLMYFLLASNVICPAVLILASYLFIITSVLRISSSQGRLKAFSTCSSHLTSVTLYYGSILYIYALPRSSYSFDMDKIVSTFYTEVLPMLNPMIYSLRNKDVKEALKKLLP
# Procedure, shortened: as §1
# [4] = molecular target: T4, OR9I1 (Homo sapiens) (UniProt Q8NGQ6)
# T4 sequence (whole entry): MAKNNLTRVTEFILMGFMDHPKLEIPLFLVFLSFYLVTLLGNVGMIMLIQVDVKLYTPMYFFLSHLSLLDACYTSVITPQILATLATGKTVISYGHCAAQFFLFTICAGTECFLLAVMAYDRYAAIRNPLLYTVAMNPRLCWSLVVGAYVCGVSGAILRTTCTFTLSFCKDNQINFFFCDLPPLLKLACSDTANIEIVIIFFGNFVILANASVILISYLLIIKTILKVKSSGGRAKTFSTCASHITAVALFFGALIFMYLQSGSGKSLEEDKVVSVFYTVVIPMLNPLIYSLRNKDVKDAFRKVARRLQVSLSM
# Procedure, shortened: as §1
# [5] = molecular target: T5, OR9K2 (Homo sapiens) (UniProt Q8NGE7)
# T5 sequence (whole entry): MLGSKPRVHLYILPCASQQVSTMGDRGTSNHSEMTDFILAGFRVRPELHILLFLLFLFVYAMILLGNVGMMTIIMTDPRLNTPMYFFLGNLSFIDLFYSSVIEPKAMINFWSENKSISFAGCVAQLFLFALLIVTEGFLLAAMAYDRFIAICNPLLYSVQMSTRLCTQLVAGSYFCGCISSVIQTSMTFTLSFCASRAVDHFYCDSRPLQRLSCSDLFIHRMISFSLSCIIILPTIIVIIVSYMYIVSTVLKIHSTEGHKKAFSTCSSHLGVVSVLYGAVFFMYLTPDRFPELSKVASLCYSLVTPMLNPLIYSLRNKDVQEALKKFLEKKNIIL
# Procedure, shortened: as §1
# [6] = tested on: T6, OR9Q1
# T6 sequence (whole entry): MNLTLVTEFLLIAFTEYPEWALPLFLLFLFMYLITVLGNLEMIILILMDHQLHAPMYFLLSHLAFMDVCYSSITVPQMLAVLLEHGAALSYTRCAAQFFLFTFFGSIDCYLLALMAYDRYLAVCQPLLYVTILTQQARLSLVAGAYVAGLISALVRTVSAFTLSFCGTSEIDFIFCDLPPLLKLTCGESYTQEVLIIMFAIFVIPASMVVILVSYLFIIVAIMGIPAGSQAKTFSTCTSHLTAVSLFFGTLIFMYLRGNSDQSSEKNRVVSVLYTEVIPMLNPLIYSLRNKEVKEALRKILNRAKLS
# Procedure, shortened: as §1
# [7] = molecular target: T7, OR9Q2 (Homo sapiens) (UniProt Q8NGE9)
# T7 sequence (whole entry): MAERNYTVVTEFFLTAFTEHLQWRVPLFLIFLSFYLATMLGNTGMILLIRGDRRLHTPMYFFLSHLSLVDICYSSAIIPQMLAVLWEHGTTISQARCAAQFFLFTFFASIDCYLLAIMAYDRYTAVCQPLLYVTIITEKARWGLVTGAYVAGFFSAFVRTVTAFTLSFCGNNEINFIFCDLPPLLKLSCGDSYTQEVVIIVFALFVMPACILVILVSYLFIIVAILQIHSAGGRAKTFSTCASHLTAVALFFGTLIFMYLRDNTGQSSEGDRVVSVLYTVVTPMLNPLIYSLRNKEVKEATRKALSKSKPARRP
# Procedure, shortened: as §1
# [8] = tested on: T8, OR9Q2
# T8 sequence (whole entry): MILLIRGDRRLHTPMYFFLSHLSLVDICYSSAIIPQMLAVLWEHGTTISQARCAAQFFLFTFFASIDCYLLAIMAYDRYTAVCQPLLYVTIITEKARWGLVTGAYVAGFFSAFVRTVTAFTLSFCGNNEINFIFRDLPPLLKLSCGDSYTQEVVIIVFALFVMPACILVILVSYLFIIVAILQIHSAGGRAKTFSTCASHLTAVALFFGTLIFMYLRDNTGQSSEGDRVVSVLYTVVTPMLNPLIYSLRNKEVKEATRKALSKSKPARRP
# Procedure, shortened: as §1
# [9] = tested on: T9, ORM2B
# T9 sequence (whole entry): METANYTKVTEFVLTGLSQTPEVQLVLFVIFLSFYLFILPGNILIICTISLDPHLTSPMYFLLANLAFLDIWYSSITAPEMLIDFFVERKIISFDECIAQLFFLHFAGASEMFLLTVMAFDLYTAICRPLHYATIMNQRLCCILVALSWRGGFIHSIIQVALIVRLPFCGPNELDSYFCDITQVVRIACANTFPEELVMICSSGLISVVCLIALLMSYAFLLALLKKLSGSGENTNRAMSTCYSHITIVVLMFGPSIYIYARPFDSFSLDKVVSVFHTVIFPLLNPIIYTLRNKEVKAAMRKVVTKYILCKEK
# Procedure, shortened: as §1
# [10] = molecular target: T10, Or10j5 (Mus musculus) (UniProt Q62007)
# T10 sequence (whole entry): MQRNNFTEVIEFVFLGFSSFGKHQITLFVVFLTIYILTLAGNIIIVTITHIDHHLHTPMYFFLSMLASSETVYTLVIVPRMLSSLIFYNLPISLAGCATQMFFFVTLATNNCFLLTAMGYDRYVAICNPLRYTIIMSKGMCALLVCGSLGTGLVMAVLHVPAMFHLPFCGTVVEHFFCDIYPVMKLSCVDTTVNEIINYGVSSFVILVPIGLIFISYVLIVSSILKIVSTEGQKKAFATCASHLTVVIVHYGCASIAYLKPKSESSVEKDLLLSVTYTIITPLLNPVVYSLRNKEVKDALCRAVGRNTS
# Procedure, shortened: as §1
# 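Note: active if original authors judged signal statistically different from baseline.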
Structure (SMILES),odorant receptor agonist call [1],odorant receptor agonist call [2],odorant receptor agonist call [3],odorant receptor agonist call [4],odorant receptor agonist call [5],odorant receptor agonist call [6],odorant receptor agonist call [7],odorant receptor agonist call [8],odorant receptor agonist call [9],odorant receptor agonist call [10]
CCCCCCCCCCC=O,inactive,inactive,inactive,inactive,inactive,inactive,inactive,inactive,inactive,inactive
CC12C=CCC1C1CCC3=CC(=O)CCC3(C)C1CC2 (centres undefined),inactive,inactive,inactive,inactive,inactive,inactive,inactive,inactive,inactive,
CCCCCCCOC(C)=O,inactive,inactive,inactive,inactive,inactive,inactive,inactive,inactive,inactive,
CC(C)CCC(=O)O,inactive,inactive,inactive,inactive,inactive,inactive,inactive,inactive,inactive,
O=CCc1ccccc1,inactive,inactive,inactive,inactive,inactive,inactive,inactive,inactive,inactive,
CC(C)C(=O)O,inactive,inactive,inactive,inactive,inactive,active,inactive,inactive,inactive,
CC1=CCC(C(C)(C)O)CC1 (centres undefined),inactive,inactive,inactive,inactive,inactive,inactive,inactive,inactive,inactive,
